This is an account of results in paper PMC4735351.

Chains of the proteins cited; added tags and fusions are not shown.
UniProt P29476: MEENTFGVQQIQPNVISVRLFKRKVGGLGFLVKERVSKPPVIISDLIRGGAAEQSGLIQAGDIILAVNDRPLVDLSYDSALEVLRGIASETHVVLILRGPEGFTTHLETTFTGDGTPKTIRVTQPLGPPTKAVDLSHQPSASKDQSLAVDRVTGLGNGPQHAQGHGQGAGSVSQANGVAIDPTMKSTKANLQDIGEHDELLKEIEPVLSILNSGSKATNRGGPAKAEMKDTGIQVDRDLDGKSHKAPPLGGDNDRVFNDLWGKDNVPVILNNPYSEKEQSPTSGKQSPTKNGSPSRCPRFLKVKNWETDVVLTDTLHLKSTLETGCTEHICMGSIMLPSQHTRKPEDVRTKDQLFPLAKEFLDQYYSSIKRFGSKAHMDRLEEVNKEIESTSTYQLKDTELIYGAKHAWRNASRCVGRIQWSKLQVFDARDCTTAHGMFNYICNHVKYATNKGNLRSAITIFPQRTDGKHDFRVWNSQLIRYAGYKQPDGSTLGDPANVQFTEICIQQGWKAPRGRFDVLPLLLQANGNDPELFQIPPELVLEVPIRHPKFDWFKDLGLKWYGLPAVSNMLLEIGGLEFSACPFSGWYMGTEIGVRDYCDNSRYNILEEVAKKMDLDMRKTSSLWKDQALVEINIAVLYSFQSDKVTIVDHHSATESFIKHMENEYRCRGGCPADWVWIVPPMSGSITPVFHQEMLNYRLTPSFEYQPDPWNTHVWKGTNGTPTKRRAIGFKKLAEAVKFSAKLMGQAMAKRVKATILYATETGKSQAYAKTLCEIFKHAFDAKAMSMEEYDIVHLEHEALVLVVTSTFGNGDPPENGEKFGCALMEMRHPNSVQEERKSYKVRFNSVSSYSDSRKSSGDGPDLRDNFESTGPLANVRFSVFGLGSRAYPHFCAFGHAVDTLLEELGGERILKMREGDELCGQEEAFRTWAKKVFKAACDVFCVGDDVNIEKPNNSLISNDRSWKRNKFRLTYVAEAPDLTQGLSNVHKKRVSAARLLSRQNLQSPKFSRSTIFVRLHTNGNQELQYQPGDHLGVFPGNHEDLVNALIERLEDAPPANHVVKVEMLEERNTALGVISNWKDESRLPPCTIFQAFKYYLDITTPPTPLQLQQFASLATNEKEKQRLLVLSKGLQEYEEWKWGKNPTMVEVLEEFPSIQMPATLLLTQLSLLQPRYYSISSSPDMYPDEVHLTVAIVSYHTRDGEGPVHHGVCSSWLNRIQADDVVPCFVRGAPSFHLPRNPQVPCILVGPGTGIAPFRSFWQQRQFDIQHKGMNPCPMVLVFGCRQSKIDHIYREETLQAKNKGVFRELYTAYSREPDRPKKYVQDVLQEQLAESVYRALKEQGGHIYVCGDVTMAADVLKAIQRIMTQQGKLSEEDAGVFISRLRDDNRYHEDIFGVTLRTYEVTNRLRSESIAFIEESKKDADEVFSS
UniProt O54960: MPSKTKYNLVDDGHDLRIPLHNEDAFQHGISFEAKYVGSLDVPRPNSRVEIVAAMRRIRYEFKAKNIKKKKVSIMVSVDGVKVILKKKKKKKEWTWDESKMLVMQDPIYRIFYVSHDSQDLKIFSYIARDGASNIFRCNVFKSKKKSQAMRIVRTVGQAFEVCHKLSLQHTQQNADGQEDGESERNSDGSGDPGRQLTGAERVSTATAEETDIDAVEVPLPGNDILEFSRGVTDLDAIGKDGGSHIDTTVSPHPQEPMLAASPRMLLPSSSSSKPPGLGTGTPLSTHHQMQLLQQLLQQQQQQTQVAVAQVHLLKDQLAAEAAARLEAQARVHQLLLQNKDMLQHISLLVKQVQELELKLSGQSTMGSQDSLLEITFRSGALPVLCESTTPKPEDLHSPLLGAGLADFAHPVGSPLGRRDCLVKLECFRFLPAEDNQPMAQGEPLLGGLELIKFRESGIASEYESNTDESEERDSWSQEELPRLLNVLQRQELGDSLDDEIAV

For this experiment, the target named is neuronal nitric oxide synthase (nNOS) (rat (endogenous in rat brain)) (UniProt P29476). Kind of experiment: co-IP; rat brain lysate (TEEN, 1% Triton X-100), pre-cleared with protein G agarose, immunoprecipitated with monoclonal nNOS antibody or mouse IgG at 4°C for 2 h; washed with TEEN containing 0.1% Triton X-100; Western blotting for nNOS and NOS1AP isoforms.

No constants are given. Whether binding was seen depends on the method and setting. Binding seen in cells or lysates may run through a third protein. Some results given as binding are weak or reduced against the parent protein; the word gives no strength.

In the case of “Nitric Oxide Synthase 1 Adaptor Protein, long isoform (NOS1AP-L) (from UniProt O54960 1-503)”, the binding result is given as “binds”.
